Measurements: article PMC9515043
Results are given in words; binding and its absence hold for the method and conditions named. Binding seen in cells or lysates may run through a third protein. Some results given as binding are weak or reduced against the parent protein; the word gives no strength.

Molecular target: epidermal growth factor receptor (EGFR) (human (endogenous in HT-29 and HCT-116)) (UniProt P00533)
Assay: co-IP; lysates of HT-29 and HCT-116 cells (treated with non-siRNA, EGFR inhibitor, p-SPINK1, SPINK1 siRNA, with/without EGFR inhibitor); incubated with anti-EGFR or IgG antibody at 4 °C overnight, beads, elution with 0.2 M glycine-HCl pH 2.5; immunoblot with SPINK1 antibody

binding: binds
B1: Serine protease inhibitor Kazal type 1 (SPINK1) (protein, UniProt P00995 24-79)
chain: DSLGREAKCYNELNGCTKIYDPVCGTDGNTYPNECVLCFENRKRQTSILIQKSGPC
